PubChem BioAssay AID504793 | Drosophila RNAi Screening Center | 2011
The screen tested about 23,000 reagents; this is an unselected part of those that have a named target and a result. Of all reagents, 62 (0.27%) were called active. 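Calls come from follow-up tests whose scores are not deposited, so confirmed genes may have low counts here; counts are not normalised per plate.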 The raw values are shown without normalisation. Reagents against one gene are numbered here. A plus sign joins genes that one reagent is predicted to hit.

Aim: 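Whole-genome screen for parts of the DNA damage checkpoint at G2/M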 (primary screen)
Cells: Drosophila S2R+ cells
Reagent: long dsRNA against Drosophila genes, about 0.25 µg dsRNA per well
Duration: 4 days of dsRNA, then 4 hours of drug before read-out
Conditions: doxorubicin 0.5 µM for 4 hours to cause double-strand breaks, in cells also given a low, harmless dose of dsRNA against nbs to sensitise the assay
Detection: 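Mitotic index as the number of phospho-histone H3-positive cells in each well following doxorubicin, given as raw counts without normalisation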
Direction: mitotic cells: higher = more cells in mitosis, weaker G2 arrest
Rule for the call: 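a call needs confirmation in secondary tests, with other dsRNAs and a check of mitotic timing without damage, not just a high primary count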
Meaning of the calls: active = confirmed in follow-up tests; inactive = not confirmed

| target gene | reagent | mitotic cells, replicate 1 | Call |
| --- | --- | --- | --- |
| Taf6 (TBP-associated factor 6) | 1 | 5 | inactive |
| CG14034 | 1 | 7 | inactive |
| Pdi (Protein disulfide isomerase) | 1 | 9 | inactive |
| Pdi (Protein disulfide isomerase) | 2 | 7 | inactive |
| fzo (fuzzy onions) | 1 | 14 | inactive |
| CG17780 + CG17781 | 1 | 8 | inactive |
| CG17780 + CG17781 | 2 | 4 | inactive |
| CG17780 + CG17781 | 3 | 10 | inactive |
| CG9875 | 1 | 3 | inactive |
| melt (melted) | 1 | 5 | inactive |
| IKKepsilon (I-kappaB kinase epsilon) | 1 | 10 | inactive |
| CG8668 | 1 | 2 | inactive |
| CG8668 | 2 | 1 | inactive |
| CG6418 | 1 | 8 | inactive |
| CG6418 | 2 | 3 | inactive |
| CG8565 | 1 | 12 | inactive |
| CG31752 | 1 | 12 | inactive |
| CG13454 | 1 | 7 | inactive |
| Cyp12e1 (Cytochrome P450 12e1) | 1 | 11 | inactive |
| ry (rosy) | 1 | 6 | inactive |
| ry (rosy) | 2 | 4 | inactive |
| CG4951 | 1 | 6 | inactive |
| CG1532 | 1 | 4 | inactive |
| RhoGAP92B (Rho GTPase activating protein at 92B) | 1 | 5 | inactive |
| RhoGAP92B (Rho GTPase activating protein at 92B) | 2 | 8 | inactive |
| Nph (Nucleophosmin) | 1 | 17 | inactive |
| CG9686 | 1 | 9 | inactive |
| CG9686 | 2 | 4 | inactive |
| CG13116 | 1 | 12 | inactive |
| CG13116 | 2 | 9 | inactive |
| CG13116 | 3 | 9 | inactive |
| CG42674 | 1 | 5 | inactive |
| CG42674 | 2 | 5 | inactive |
| CG42674 | 3 | 4 | inactive |
| CG42674 | 4 | 8 | inactive |
| CG42674 | 5 | 5 | inactive |
| CG1671 | 1 | 12 | inactive |
| trio | 1 | 24 | inactive |
| trio | 2 | 11 | inactive |
| trio | 3 | 7 | inactive |
| CG45263 | 1 | 3 | inactive |
| CG45263 | 2 | 7 | inactive |
| CG45263 | 3 | 4 | inactive |
| CG16970 (retired record) | 1 | 2 | inactive |
| CG16970 (retired record) | 2 | 2 | inactive |
| Obp93a (Odorant-binding protein 93a) | 1 | 6 | inactive |
| CG11155 | 1 | 11 | inactive |
| CG11155 | 2 | 5 | inactive |
| Cht4 (Chitinase 4) | 1 | 9 | inactive |
| CG8813 | 1 | 1 | inactive |
| CG5969 | 1 | 1 | inactive |
| CG5969 | 2 | 4 | inactive |
| CG14374 | 1 | 3 | inactive |
| CG31560 | 1 | 5 | inactive |
| CG13321 | 1 | 4 | inactive |
| CG13321 | 2 | 6 | inactive |
| CG31259 | 1 | 5 | inactive |
| CG6508 | 1 | 3 | inactive |
| CG9973 (retired record) | 1 | 4 | inactive |
| CG9973 (retired record) | 2 | 5 | inactive |
| CG13527 | 1 | 3 | inactive |
| CG42272 | 1 | 12 | inactive |
| CG42272 | 2 | 5 | inactive |
| CG42272 | 3 | 3 | inactive |
| CG42272 | 4 | 4 | inactive |
| Srp68 (Signal recognition particle 68) | 1 | 6 | inactive |
| Srp68 (Signal recognition particle 68) | 2 | 5 | inactive |
| Hsp70Aa + Hsp70Ab | 1 | 7 | inactive |
| Hsp70Aa + Hsp70Ab | 2 | 3 | inactive |
| CG3430 | 1 | 6 | inactive |
| CG5561 | 1 | 7 | inactive |
| CG18234 | 1 | 3 | inactive |
| CG10477 | 1 | 3 | inactive |
| CG10477 | 2 | 5 | inactive |
| CG15725 | 1 | 4 | inactive |
| CG15443 | 1 | – | inactive |
| CG10799 | 1 | 8 | inactive |
| Nep1 (Neprilysin 1) | 1 | – | inactive |
| Nep1 (Neprilysin 1) | 2 | 7 | inactive |
| CG7655 | 1 | 5 | inactive |
| Tl (Toll) | 1 | 5 | inactive |
| hry (hairy) | 1 | 13 | inactive |
| hry (hairy) | 2 | 9 | inactive |
| CG11634 | 1 | 1 | inactive |
| CG8646 | 1 | 6 | inactive |
| CG11436 | 1 | 2 | inactive |
| GstE1 (Glutathione S transferase E1) | 1 | 6 | inactive |
| GstE1 (Glutathione S transferase E1) | 2 | 2 | inactive |
| KP78b + KP78a | 1 | 22 | inactive |
| KP78b + KP78a | 2 | 13 | inactive |
| KP78b + KP78a | 3 | 3 | inactive |
| Elal (Elastin-like) | 1 | 3 | inactive |
| CG7094 | 1 | 3 | inactive |
| CG7094 | 2 | 7 | inactive |
| CG42675 | 1 | 4 | inactive |
| CG42675 | 2 | 15 | inactive |
| CG42675 | 3 | 9 | inactive |
| CG42675 | 4 | 6 | inactive |
| CG10576 | 1 | 5 | inactive |
| mthl6 (methuselah-like 6) | 1 | 3 | inactive |
| CG32718 | 1 | 9 | inactive |
| Sod3 (Superoxide dismutase 3) | 1 | 4 | inactive |
| Sod3 (Superoxide dismutase 3) | 2 | 2 | inactive |
| nullo | 1 | 10 | inactive |
| nullo | 2 | 8 | inactive |
| DIP-zeta (Dpr-interacting protein zeta) | 1 | 4 | inactive |
| DIP-zeta (Dpr-interacting protein zeta) | 2 | 10 | inactive |
| DIP-zeta (Dpr-interacting protein zeta) | 3 | 4 | inactive |
| sfl (sulfateless) | 1 | 6 | inactive |
| sfl (sulfateless) | 2 | 6 | inactive |
| sfl (sulfateless) | 3 | 11 | inactive |

Ordered by “mitotic cells, replicate 1” (lowest first): some entries from above.
| target gene | reagent | mitotic cells, replicate 1 | Call |
| --- | --- | --- | --- |
| CG42674 | 5 | 5 | inactive |
| trio | 3 | 7 | inactive |
| CG42674 | 4 | 8 | inactive |
| trio | 2 | 11 | inactive |
| CG1671 | 1 | 12 | inactive |
| trio | 1 | 24 | inactive |
